{"source": "PubChem BioAssay AID1259259 – Sanger Institute, 2017", "purpose": "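Synthetic lethal kinase partners of anchor drugs in colorectal cancer cells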 (primary screen)", "cells": "SW1463 human colorectal cancer cells", "knock-down reagent": "siRNA pool against human genes", "treatment": "DMSO vehicle, or one anchor drug: BYL719 at 1 µM, cetuximab at 5 µg/ml, or trametinib at 10 nM", "read-out": "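Viability relative to control pool 2 (non-targeting) averaged over replicates, robust z-score for knock-down with no drug, and for each anchor drug the mean synergy score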", "scale": "robust z-score, knock-down alone: higher = more viable cells after knock-down", "rule for the call": "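a robust z-score under -3 for knock-down with no drug marks the gene as essential, meaning viability loss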", "calls": "active = essential: viability loss from knock-down alone; inactive = no change from knock-down alone", "note": "The deposit covers 794 reagents; below is a part drawn at random. Over the whole deposit, 9 (1.1%) are marked active. 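Calls rest on knock-down alone, not drug synergy; viability values seem capped at 1.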 Further read-outs or replicates are left out here. Not stated in the record: the amount of reagent, the time to read-out."}
{"Target gene": "RYK", "robust z-score, knock-down alone": 1.08, "call": "inactive"}
{"Target gene": "PDK2", "robust z-score, knock-down alone": 0.529, "call": "inactive"}
{"Target gene": "PTPN11", "robust z-score, knock-down alone": 0.0976, "call": "inactive"}
{"Target gene": "ALDH18A1", "robust z-score, knock-down alone": 0.72, "call": "inactive"}
{"Target gene": "UCK1", "robust z-score, knock-down alone": 0.48, "call": "inactive"}
{"Target gene": "FGFR1", "robust z-score, knock-down alone": 1.13, "call": "inactive"}
{"Target gene": "FLT1", "robust z-score, knock-down alone": 0.303, "call": "inactive"}
{"Target gene": "IKBKG", "robust z-score, knock-down alone": 0.113, "call": "inactive"}
{"Target gene": "ETNK1", "robust z-score, knock-down alone": 0.00349, "call": "inactive"}
{"Target gene": "MTOR", "robust z-score, knock-down alone": -0.125, "call": "inactive"}
{"Target gene": "SF3B1", "robust z-score, knock-down alone": -0.98, "call": "inactive"}
{"Target gene": "PIM2", "robust z-score, knock-down alone": 0.534, "call": "inactive"}
{"Target gene": "CDKL1", "robust z-score, knock-down alone": -0.712, "call": "inactive"}

Records above whose gene name begins with F or f (2):
{"Target gene": "FGFR1", "robust z-score, knock-down alone": 1.13, "call": "inactive"}
{"Target gene": "FLT1", "robust z-score, knock-down alone": 0.303, "call": "inactive"}

More records follow.
{"Target gene": "PRKAR2B", "robust z-score, knock-down alone": -1.74, "call": "inactive"}
{"Target gene": "CDKL3", "robust z-score, knock-down alone": -0.73, "call": "inactive"}
{"Target gene": "CAMK2B", "robust z-score, knock-down alone": 0.126, "call": "inactive"}
{"Target gene": "CDK19", "robust z-score, knock-down alone": 0.449, "call": "inactive"}
{"Target gene": "SMAD4", "robust z-score, knock-down alone": 0.242, "call": "inactive"}
{"Target gene": "ACO1", "robust z-score, knock-down alone": -0.616, "call": "inactive"}
{"Target gene": "PIK3R1", "robust z-score, knock-down alone": 0.583, "call": "inactive"}
{"Target gene": "NEK7", "robust z-score, knock-down alone": 1.13, "call": "inactive"}
{"Target gene": "STK33", "robust z-score, knock-down alone": -1.97, "call": "inactive"}
{"Target gene": "EPHA8", "robust z-score, knock-down alone": 0.828, "call": "inactive"}
{"Target gene": "MOK", "robust z-score, knock-down alone": -0.62, "call": "inactive"}
{"Target gene": "NME2", "robust z-score, knock-down alone": 1.13, "call": "inactive"}
{"Target gene": "WHR1", "robust z-score, knock-down alone": 0.125, "call": "inactive"}
{"Target gene": "MVK", "robust z-score, knock-down alone": -0.291, "call": "inactive"}
{"Target gene": "NUP107", "robust z-score, knock-down alone": -3.24, "call": "active"}
